Assay results: US20150241442A1
These are yes or no findings as the source states them, for the method shown. Some binding calls cover weakened binding; strength is not graded here.

Amino acid sequences for entries named in this document (tags omitted). Residues count along the entry.
UniProt P09055, residues 21-798: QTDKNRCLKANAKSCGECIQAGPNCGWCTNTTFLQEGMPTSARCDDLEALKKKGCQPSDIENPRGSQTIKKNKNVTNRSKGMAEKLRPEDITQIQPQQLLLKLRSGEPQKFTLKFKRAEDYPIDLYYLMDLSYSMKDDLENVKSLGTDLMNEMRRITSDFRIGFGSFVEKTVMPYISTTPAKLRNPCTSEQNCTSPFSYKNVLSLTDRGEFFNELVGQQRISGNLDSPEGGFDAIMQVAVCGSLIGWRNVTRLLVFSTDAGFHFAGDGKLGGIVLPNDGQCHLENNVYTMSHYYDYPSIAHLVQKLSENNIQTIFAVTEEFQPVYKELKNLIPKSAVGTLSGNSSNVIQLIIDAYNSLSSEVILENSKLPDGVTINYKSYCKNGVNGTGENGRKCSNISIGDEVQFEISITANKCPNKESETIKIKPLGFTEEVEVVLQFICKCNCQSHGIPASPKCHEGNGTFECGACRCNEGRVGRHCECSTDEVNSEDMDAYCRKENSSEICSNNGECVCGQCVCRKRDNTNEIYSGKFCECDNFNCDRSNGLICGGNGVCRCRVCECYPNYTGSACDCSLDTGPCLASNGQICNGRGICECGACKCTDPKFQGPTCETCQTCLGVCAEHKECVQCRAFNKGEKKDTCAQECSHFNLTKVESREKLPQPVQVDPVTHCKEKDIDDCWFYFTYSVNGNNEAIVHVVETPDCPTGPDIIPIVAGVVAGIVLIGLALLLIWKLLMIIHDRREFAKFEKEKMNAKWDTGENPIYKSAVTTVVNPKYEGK
UniProt P11835, residues 24-771: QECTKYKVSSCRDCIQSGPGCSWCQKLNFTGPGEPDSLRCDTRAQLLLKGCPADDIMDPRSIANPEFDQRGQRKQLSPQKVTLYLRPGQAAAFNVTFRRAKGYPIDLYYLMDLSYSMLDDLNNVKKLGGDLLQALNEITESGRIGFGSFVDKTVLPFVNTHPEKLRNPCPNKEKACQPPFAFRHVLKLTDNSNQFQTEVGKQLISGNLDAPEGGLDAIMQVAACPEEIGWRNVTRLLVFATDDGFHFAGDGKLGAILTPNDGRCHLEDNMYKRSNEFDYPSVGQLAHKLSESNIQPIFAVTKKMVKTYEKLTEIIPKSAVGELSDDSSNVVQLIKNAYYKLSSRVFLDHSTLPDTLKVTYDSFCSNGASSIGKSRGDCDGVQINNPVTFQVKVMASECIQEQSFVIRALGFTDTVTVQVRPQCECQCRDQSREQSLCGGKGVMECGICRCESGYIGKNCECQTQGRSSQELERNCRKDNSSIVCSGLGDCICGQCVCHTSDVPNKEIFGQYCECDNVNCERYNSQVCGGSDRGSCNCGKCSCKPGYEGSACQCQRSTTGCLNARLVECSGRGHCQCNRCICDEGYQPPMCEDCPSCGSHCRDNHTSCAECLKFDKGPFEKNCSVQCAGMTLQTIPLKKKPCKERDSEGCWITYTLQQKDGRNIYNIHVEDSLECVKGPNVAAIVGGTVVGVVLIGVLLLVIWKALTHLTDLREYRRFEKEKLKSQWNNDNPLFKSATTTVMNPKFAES

Tests used:
[1] = biological target: β1 integrin (surface protein of NIH3T3 cells) (murine (NIH3T3 murine fibroblasts)) (UniProt P09055); assay: two-column affinity chromatography, immunoblot (FIG. 15C)
[2] = biological target: β2 integrin (surface protein of NIH3T3 cells) (murine (NIH3T3 murine fibroblasts)) (UniProt P11835); assay: as above
[3] = biological target: T1, β3 integrin (surface protein of NIH3T3 cells) (murine (NIH3T3 murine fibroblasts)) (UniProt O54890); assay: as above
T1 sequence (surface biotinylated (sulfo-NHS-LC-Biotin), looked up): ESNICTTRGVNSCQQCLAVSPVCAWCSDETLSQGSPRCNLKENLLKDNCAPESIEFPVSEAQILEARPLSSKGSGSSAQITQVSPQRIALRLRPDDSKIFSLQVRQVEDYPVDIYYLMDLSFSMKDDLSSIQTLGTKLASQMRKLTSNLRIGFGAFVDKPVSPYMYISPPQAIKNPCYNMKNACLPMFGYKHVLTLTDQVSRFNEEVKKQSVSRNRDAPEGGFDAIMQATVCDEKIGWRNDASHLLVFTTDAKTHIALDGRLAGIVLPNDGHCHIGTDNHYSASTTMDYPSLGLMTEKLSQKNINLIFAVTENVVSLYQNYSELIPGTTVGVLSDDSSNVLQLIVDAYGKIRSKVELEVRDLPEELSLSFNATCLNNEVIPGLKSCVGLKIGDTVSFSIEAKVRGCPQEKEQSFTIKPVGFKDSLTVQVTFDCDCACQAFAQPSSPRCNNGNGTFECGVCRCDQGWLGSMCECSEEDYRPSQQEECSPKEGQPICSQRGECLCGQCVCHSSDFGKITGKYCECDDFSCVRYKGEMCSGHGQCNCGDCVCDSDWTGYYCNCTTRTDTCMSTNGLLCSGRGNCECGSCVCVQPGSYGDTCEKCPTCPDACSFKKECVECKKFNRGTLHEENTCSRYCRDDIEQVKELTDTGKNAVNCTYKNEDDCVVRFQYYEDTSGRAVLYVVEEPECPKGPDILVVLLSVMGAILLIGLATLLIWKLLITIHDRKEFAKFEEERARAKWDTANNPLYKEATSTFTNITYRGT

[4] = biological target: β1 integrin (surface protein of NIH3T3 cells) (murine (NIH3T3 murine fibroblasts)) (UniProt P09055); assay: ICAM-2 solid support and streptavidin-agarose two-column affinity chromatography, immunoblot
[5] = biological target: β2 integrin (surface protein of NIH3T3 cells) (murine (NIH3T3 murine fibroblasts)) (UniProt P11835); assay: as above
[6] = biological target: T1, β3 integrin (surface protein of NIH3T3 cells) (murine (NIH3T3 murine fibroblasts)); assay: as above

Measured: binding

B1: soluble ICAM-2 (biochemically purified human ICAM-2 protein) (ligand, UniProt P13598 25-223, looked up)
chain: KVFEVHVRPKKLAVEPKGSLEVNCSTTCNQPEVGGLETSLDKILLDEQAQWKHYLVSNISHDTVLQCHFTCSGKQESMNSNVSVYQPPRQVILTLQPTLVAVGKSFTIECRVPTVEPLDSLTLFLFRGNETLHYETFGKAAPAPQEATATFNSTADREDGHRNFSCLAVLDLMSRGGNIFHKHSAPKMLEIYEPVSDSQ
binds: all assays above
